Assay results published in article PMC4660213, “Identification and characterization of multiple rubisco activases in chemoautotrophic bacteria” (Nature Communications, 2015).

Amino acid sequences for entries named in this document (tags omitted). A change or cut given only in a name is not applied to a line headed by its entry.
UniProt B7J5E4: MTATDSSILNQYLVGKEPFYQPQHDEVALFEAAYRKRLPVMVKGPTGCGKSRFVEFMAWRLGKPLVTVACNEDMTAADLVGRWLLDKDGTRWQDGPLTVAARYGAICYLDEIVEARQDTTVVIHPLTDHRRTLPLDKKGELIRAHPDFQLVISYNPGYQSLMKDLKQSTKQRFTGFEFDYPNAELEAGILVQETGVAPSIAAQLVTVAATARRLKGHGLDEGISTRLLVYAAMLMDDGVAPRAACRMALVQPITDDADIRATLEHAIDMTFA
UniProt B7JA26: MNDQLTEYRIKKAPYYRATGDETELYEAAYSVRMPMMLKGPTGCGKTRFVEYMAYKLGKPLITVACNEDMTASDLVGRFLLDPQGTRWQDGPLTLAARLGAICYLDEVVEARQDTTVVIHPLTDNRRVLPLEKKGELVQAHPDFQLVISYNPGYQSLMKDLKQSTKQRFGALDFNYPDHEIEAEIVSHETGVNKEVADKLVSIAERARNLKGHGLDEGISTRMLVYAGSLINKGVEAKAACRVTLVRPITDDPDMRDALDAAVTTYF
UniProt B7J5E5: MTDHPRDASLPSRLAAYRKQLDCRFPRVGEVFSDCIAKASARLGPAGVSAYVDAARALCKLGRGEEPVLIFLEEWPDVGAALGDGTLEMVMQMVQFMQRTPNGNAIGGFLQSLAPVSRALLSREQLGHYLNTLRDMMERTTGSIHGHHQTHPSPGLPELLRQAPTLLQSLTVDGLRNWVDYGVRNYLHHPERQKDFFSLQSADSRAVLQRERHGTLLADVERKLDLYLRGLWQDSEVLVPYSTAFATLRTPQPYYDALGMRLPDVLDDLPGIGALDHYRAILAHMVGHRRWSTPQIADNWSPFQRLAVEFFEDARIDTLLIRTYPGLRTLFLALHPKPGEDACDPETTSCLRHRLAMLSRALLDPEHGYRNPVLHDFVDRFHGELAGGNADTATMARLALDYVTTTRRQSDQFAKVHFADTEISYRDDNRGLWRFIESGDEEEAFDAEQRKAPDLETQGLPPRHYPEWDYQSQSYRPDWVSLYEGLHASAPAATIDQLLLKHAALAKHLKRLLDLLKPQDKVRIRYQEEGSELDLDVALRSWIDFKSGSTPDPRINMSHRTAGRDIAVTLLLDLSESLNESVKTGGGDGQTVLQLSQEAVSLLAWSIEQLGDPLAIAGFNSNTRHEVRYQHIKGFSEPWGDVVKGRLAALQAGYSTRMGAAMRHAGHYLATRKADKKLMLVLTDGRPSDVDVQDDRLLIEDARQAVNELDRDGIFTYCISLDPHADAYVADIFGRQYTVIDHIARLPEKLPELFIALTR
UniProt B7JA27: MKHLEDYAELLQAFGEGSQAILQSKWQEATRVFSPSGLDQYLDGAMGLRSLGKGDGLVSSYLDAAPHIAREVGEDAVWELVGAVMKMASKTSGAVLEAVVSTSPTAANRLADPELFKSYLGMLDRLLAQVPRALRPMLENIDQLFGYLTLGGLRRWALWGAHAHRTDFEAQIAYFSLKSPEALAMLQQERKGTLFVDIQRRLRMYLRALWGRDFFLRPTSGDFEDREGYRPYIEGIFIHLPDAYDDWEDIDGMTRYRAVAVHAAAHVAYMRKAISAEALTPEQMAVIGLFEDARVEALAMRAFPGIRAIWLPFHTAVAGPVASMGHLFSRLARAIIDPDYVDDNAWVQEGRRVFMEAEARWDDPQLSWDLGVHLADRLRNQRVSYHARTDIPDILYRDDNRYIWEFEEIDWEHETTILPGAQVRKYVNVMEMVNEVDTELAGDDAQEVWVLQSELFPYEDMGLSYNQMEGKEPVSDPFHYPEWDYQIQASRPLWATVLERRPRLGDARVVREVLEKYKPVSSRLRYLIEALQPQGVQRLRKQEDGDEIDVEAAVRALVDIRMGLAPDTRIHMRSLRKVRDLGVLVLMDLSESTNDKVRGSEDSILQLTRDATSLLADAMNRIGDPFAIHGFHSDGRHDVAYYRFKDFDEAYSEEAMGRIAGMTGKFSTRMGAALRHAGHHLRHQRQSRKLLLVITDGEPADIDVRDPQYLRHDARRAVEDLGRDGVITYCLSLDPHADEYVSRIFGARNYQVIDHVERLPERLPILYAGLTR

Experiments:
[1] = target: Acidithiobacillus ferrooxidans CbbQ2 (Acidithiobacillus ferrooxidans ATCC 23270) (UniProt B7J5E4); assay: co-purification (Ni-NTA, ion-exchange and size-exclusion chromatography); CbbQ and CbbO co-expressed in E. coli as His6–ubiquitin fusions, ubiquitin cleaved, MonoQ, Superdex 200; Q2O2 also with 1 mM Mg-ATP in all buffers (identical profile)
[2] = target: Acidithiobacillus ferrooxidans CbbQ1 (Acidithiobacillus ferrooxidans ATCC 23270) (UniProt B7JA26); assay: as above

Acidithiobacillus ferrooxidans CbbO2 (from UniProt B7J5E5)
binding [1]: binds

Acidithiobacillus ferrooxidans CbbO1 (from UniProt B7JA27)
binding [2]: binds

These are yes or no findings as the source states them, for the method shown. In cells and extracts the contact can be indirect. Binding can be weak; no strength is given.
